Source: ChEMBL document CHEMBL3988442, “University of Dundee, Small-Polar-MMV Screening Library” (2021).

Results are given as percent effect. How 0% and 100% were set is not recorded. Most values in the screen are low, and negative values occur. This is an unselected part of the compounds tested. A dash means the value is not listed here; it may have been measured.

Mtb heat-shock: 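Assay on Mycobacterium tuberculosis, filed only as a heat shock assay from Cornell; the read-out is not stated. The concentration is filed as 10 mM, unlikely as a test dose, so the dose is not known. Direction is inferred from retests: higher values go with stronger inhibition. About 69,000 compounds were tested under these conditions; 1.4% (about 930) showed 50% or more at least once.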
Mtb growth Cornell: 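Whole-cell assay for inhibitors of Mycobacterium tuberculosis growth, labelled Cornell in the record; the read-out is not stated. The concentration is filed as 10 mM, unlikely as a test dose, so the dose is not known. The record gives no direction; compounds strong in two other growth screens of this library score well above the rest, so higher reads as stronger inhibition. Size under these conditions: about 53,000 compounds, about 900 of them at 50% or above in at least one test.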

{"compound": "O=C(O)C(F)(F)F.O=C1CCC2(CCCN(Cc3ccccc3F)C2)N1CC1CC1", "stereo": "stereo not drawn", "Mtb heat-shock": 1.976}
{"compound": "[H][C@@]12CCN(C(=O)CCc3ccccc3Cl)C[C@]1([H])OCCNC2=O", "Mtb heat-shock": -26.21, "Mtb growth Cornell": -23.36}
{"compound": "CN(C)CCNC(=O)c1ccc(OC2CCN(S(C)(=O)=O)CC2)c(Cl)c1", "Mtb heat-shock": -5.356, "Mtb growth Cornell": 16.7}
{"compound": "Cn1cnnc1S(=O)(=O)C1CCN(S(=O)(=O)C2CC2)CC1", "Mtb heat-shock": 4.868, "Mtb growth Cornell": -24.8}
{"compound": "Cc1nccn1-c1cc(CNC(=O)CCC2CCCO2)ccn1", "stereo": "stereo not drawn", "Mtb heat-shock": 4.547, "Mtb growth Cornell": 8.195}
{"compound": "Cc1nsc(C(=O)NCCCc2ccccc2)n1", "Mtb heat-shock": 9.961, "Mtb growth Cornell": 25.62}
{"compound": "Cc1c[nH]c(CN(C)C(C(=O)O)c2c(F)cccc2OC(C)C)n1", "stereo": "stereo not drawn", "Mtb heat-shock": -10.38, "Mtb growth Cornell": 27.69}
{"compound": "COc1cccc(CN2CC(O)CN(C(=O)C(C)(C)C)CC2=O)c1OC", "stereo": "stereo not drawn", "Mtb heat-shock": 90.93, "Mtb growth Cornell": -42.8}
{"compound": "Cn1c(=O)oc2cc(Nc3ncc(C#N)cc3Cl)ccc21", "Mtb heat-shock": 3.547, "Mtb growth Cornell": 26.52}
{"compound": "N#Cc1ccccc1CN1CCCC(c2nccn2CC2CCC2)C1", "stereo": "stereo not drawn", "Mtb heat-shock": -5.212, "Mtb growth Cornell": 21.43}
{"compound": "COc1cccc(NC(=O)NC(C)(C)c2noc(C)n2)c1", "Mtb heat-shock": -34.04, "Mtb growth Cornell": 14.07}
{"compound": "CC1(C)[C@H](Cc2cc(CN3CCCCC3)on2)C[C@@H]1NS(C)(=O)=O", "Mtb heat-shock": -22.71, "Mtb growth Cornell": 13.01}
{"compound": "CCC(C(=O)N1CCS(=O)(=O)CC1)n1cccn1", "stereo": "stereo not drawn", "Mtb heat-shock": 5.488, "Mtb growth Cornell": -10.19}
{"compound": "O=C(O)C(F)(F)F.[H][C@@]12COC[C@]1([H])[C@H](NC(=O)c1cccn1C)CN2Cc1cccs1", "Mtb heat-shock": -11.71, "Mtb growth Cornell": 13.18}
{"compound": "CCC(=O)N(C)C1CCN(Cc2ncc(C)c(OC)c2C)CC1", "Mtb heat-shock": -0.836, "Mtb growth Cornell": 15.65}
{"compound": "CN(C)C(=O)Cc1ccc(NC(=O)NC2CCCCC2)cc1", "Mtb heat-shock": -16.87}
{"compound": "O=C(O)C(F)(F)F.O=C(c1cccs1)N1CCOCC2(C1)CN(c1cccnc1)C(=O)CO2", "stereo": "stereo not drawn", "Mtb heat-shock": -11.47, "Mtb growth Cornell": 18.19}
{"compound": "CN(C)C(=O)C1CCC2(CCN(Cc3ccc4ccccc4n3)CC2)O1", "stereo": "stereo not drawn", "Mtb heat-shock": -10.92, "Mtb growth Cornell": 36.31}
{"compound": "CN(CCOCC1CC1)C(=O)Nc1ccc(C#N)c(Cl)c1", "Mtb heat-shock": 10.01, "Mtb growth Cornell": 19.53}
{"compound": "Cc1cc(C(=O)NCC(c2ccccc2Cl)N2CCOCC2)on1", "stereo": "stereo not drawn", "Mtb heat-shock": -36.89, "Mtb growth Cornell": 17.47}
{"compound": "CCCOC(C)C(=O)N1CCC(O)(c2ccc3nc(C)ccc3c2)CC1", "stereo": "stereo not drawn", "Mtb heat-shock": -10.65, "Mtb growth Cornell": -43.15}
{"compound": "Cc1cc(NCc2ccc(N3CCNC(=O)C3)cc2)nc(C)n1", "Mtb heat-shock": 9.924, "Mtb growth Cornell": 11.77}
{"compound": "COC1COC2(CCN(Cc3ccc4ccccc4n3)CC2)C1.O=C(O)C(F)(F)F.O=C(O)C(F)(F)F", "stereo": "stereo not drawn", "Mtb heat-shock": -45.94, "Mtb growth Cornell": 14.78}
{"compound": "CCOC(=O)CC(C)NC(=O)c1cn(Cc2ccccc2F)nn1", "stereo": "stereo not drawn", "Mtb heat-shock": 30.85, "Mtb growth Cornell": 11.99}
{"compound": "Cc1ccn2ncc(C(=O)N3CCCC(n4cccn4)C3)c2n1", "stereo": "stereo not drawn", "Mtb heat-shock": 2.333}
{"compound": "O=C(N[C@H]1CN(C2CCOCC2)C[C@@H]1C1CC1)c1ccon1", "Mtb heat-shock": 13.22, "Mtb growth Cornell": 21.55}
{"compound": "CC(C)(C)C(=O)NC[C@H]1Cn2c(-c3ccccc3)cnc2CO1", "Mtb heat-shock": -35.64, "Mtb growth Cornell": 7.271}
{"compound": "Cc1ccn2ncc(C(=O)N3CCCC(n4ccnc4C)C3)c2n1", "stereo": "stereo not drawn", "Mtb heat-shock": 8.397}
{"compound": "Cc1cc(Br)ccc1C(=O)Nc1c(C(N)=O)n[nH]c1C", "Mtb heat-shock": -17.84, "Mtb growth Cornell": -7.143}
{"compound": "Cc1nccn1C1CCCN(C(=O)c2cnn(C)c2C2CC2)C1", "stereo": "stereo not drawn", "Mtb heat-shock": -7.047}
{"compound": "Cc1ccccc1OCCC(=O)N1CCc2nc(C)n(C)c(=O)c2CC1", "Mtb heat-shock": -29.26}
{"compound": "Cc1cc(CN2CCC(CNC(=O)c3ccc4[nH]cnc4c3)C2)[nH]n1", "stereo": "stereo not drawn", "Mtb heat-shock": -7.775, "Mtb growth Cornell": -27.45}
{"compound": "CCOC1COC2(CCN(Cc3cccnc3OC)CC2)C1.O=C(O)C(F)(F)F.O=C(O)C(F)(F)F", "stereo": "stereo not drawn", "Mtb heat-shock": 16.61, "Mtb growth Cornell": -5.932}
{"compound": "c1ccc(CCN2CCC(OCC3CCCCO3)CC2)nc1", "stereo": "stereo not drawn", "Mtb heat-shock": -13.17}
{"compound": "COCC(=O)N1CCOC(c2ccc(N(C)C)cn2)C1", "stereo": "stereo not drawn", "Mtb heat-shock": -38.96, "Mtb growth Cornell": -37.06}
{"compound": "CCN1CC(COc2ccccc2)Oc2ncccc2S1(=O)=O", "stereo": "stereo not drawn", "Mtb heat-shock": -3.282, "Mtb growth Cornell": 15.02}
{"compound": "O=C(O)C(F)(F)F.[H][C@]12CCC[C@@]1(COc1ccccn1)CN(S(=O)(=O)CC)C2", "Mtb heat-shock": 3.396}
{"compound": "CCOCCN1CCCC1CS(N)(=O)=O", "stereo": "stereo not drawn", "Mtb heat-shock": 2.169, "Mtb growth Cornell": 28.74}
{"compound": "CNC(=O)N1CCC2(CC1)CN(C)Cc1cc(F)ccc12.Cl", "Mtb heat-shock": 0.8874, "Mtb growth Cornell": 4.881}
{"compound": "CCN(CC)S(=O)(=O)N1CCCC(c2ncc3c(n2)CCN(C)C3)C1", "stereo": "stereo not drawn", "Mtb heat-shock": -31.38, "Mtb growth Cornell": -27.92}
{"compound": "COCC1CN(S(=O)(=O)c2ccccc2)Cc2ncnn2C1", "stereo": "stereo not drawn", "Mtb heat-shock": -0.3642, "Mtb growth Cornell": -8.613}
{"compound": "CCOCC1CN(C(=O)c2ccnnc2)Cc2cnn(C)c21", "stereo": "stereo not drawn", "Mtb heat-shock": -22.3, "Mtb growth Cornell": 16.03}

5 of the entries, repeated:

compound,Mtb heat-shock,Mtb growth Cornell
Cc1ccn2ncc(C(=O)N3CCCC(n4cccn4)C3)c2n1 (stereo not drawn),2.333%,-
CCOC(=O)CC(C)NC(=O)c1cn(Cc2ccccc2F)nn1 (stereo not drawn),30.85%,11.99%
Cc1cc(CN2CCC(CNC(=O)c3ccc4[nH]cnc4c3)C2)[nH]n1 (stereo not drawn),-7.775%,-27.45%
N#Cc1ccccc1CN1CCCC(c2nccn2CC2CCC2)C1 (stereo not drawn),-5.212%,21.43%
CCOCC1CN(C(=O)c2ccnnc2)Cc2cnn(C)c21 (stereo not drawn),-22.3%,16.03%